Measured values from patent US11883404B2, “Preparation and composition for treatment of malignant tumors” (TAIHO PHARMACEUTICAL CO., LTD., priority 2016, dated 2024).
At least one structure is not confirmed: it was looked up by name or label, or the drawing left a doubt.

Legend:
[1] = system: human endometrial cancer line AN3CA; experiment: Apoptosis induction, CellEvent Caspase-3/7 Green Detection, Compound 1 and MK2206 (Example 9); type: cell-based; conditions: Compound 1 10 nM, MK2206 dihydrochloride 300 nM (free form), 24 hours
Description: (§1) The presence or absence of induction of apoptosis by concomitant use was observed using CellEvent™ Caspase-3/7 Green Detection Reagent (Invitrogen Corp.). […] The concentration of MK2206 dihydrochloride was set to 300 nM (in terms of a free form). These medicines used alone (DMSO was added as a control) or concomitantly were comparatively studied. […] Apoptosis was detected by adding 1 μL of CellEvent™ Caspase-3/7 Green Detection Reagent (Invitrogen Corp.) solution per well to the cells, incubating the cells at 37° C. for 30 minutes, and then measuring cell images in the bright field and fluorescence signals, under a fluorescence microscope. The observed fluorescence signals indicate the induction of Caspase 3/7, and the amplitude of the signals represents the presence or absence of induction of apoptosis-like cell death.

phosphorylated ERK = experiment: Western blot, intracellular phosphorylation of ERK in AN3CA (Example 11); type: cell-based, human; conditions: Compound 1 10 and 100 nM, MK2206 dihydrochloride 5 μM, everolimus 3 nM
[2] = system: human endometrial cancer line AN3CA; experiment: Apoptosis induction, CellEvent Caspase-3/7 Green Detection, Compound 1 and Compound 2 (Example 14); type: cell-based; conditions: Compound 1 100 nM, Compound 2 100 nM, 24 hours
Description: as §1, with “Compound 2” for “MK2206 dihydrochloride”, “100 nM.” for “300 nM (in terms of a free form).”, “6” for “1”

C=CC(=O)N1CC[C@H](n2nc(C#Cc3cc(OC)cc(OC)c3)c3c(N)ncnc32)C1 [Compound 1, (S)-1-(3-(4-Amino-3-((3,5-dimethoxyphenyl)ethynyl)-1H-pyrazolo[3,4-d]pyrimidin-1-yl)pyrrolidin-1-yl)prop-2-en-1-one]
induction of cell death (Caspase 3/7 fluorescence signals) [1]: hardly found | phosphorylation of ERK (phosphorylated ERK): strongly inhibited | induction of cell death (Caspase 3/7 fluorescence signals) [2]: hardly found
